# Record: PubChem BioAssay AID1224830 (NIAID, 2016)
# Assay: 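Regulators of TLR4 signalling towards TNF-alpha in macrophage-like cells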 (primary screen)
# Cell system: human THP-1 monocytic leukaemia cells, TNF dual-luciferase reporter clone, PMA-differentiated to macrophage-like cells
# Reagent: siRNA pool against human genes, 50 nM
# Time to read-out: LPS for 4 h, given about 3 days after siRNA transfection
# Conditions: bacterial LPS (TLR4 ligand), 10 ng/ml
# Measured: 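Ratio of firefly to renilla light, scaled to the plate median and expressed as a robust z-score per replicate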
# Scale: TNF reporter robust z-score: higher = stronger TNF reporter response to LPS
# Hit rule: 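Each well counts as active if its z-score is over 2.8 or under -1.5; controls are left without a call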
# In all, the deposit lists about 18,000 reagents; this is a random part of them. About 2,900 of all reagents (16%) count as active. 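Calls are made per well; low scores hint the gene aids the LPS response, high scores that it dampens it.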 A number with no mark means an inactive call. Repeated entries: four replicate wells of each siRNA pool. No sequences are given here.
gene symbol,TNF reporter robust z-score
TSSK6,2.69
TSSK6,2.92 (active)
TSSK6,0.08
TSSK6,2.16
GUCY2EP,-0.07
GUCY2EP,0.26
GUCY2EP,0.06
GUCY2EP,1.04
VTI1A,-1.05
VTI1A,-1.12
VTI1A,-1.32
VTI1A,0.05
PPM1L,-0.77
PPM1L,0.65
PPM1L,0.2
PPM1L,-0.5
MEIS1,-0.99
MEIS1,-0.16
MEIS1,-1.01
MEIS1,-0.13
MAGEB3,0.94
MAGEB3,1.49
MAGEB3,0.03
MAGEB3,1
RTL8C,-0.85
RTL8C,0.62
RTL8C,-0.6
DPM3,-0.45
DPM3,-0.27
DPM3,-0.57
DPM3,-0.05
PCDHGB6,-0.11
PCDHGB6,0.02
PCDHGB6,0.58
PCDHGB6,0.68
GOSR2,-1.24
GOSR2,-0.69
GOSR2,-0.99
GOSR2,-0.63
ANO8,-0.99
ANO8,-0.66
ANO8,-0.03
ANO8,0.28
ZBTB26,-0.39
ZBTB26,-0.01
ZBTB26,-0.06
ZBTB26,0.3
CARD19,2.8 (active)
CARD19,2.4
CARD19,10.3 (active)
CARD19,2.37
IMPG1,0.34
IMPG1,0
IMPG1,0.31
IMPG1,0.91
RHOA,-0.36
RHOA,0.21
RHOA,-0.04
RHOA,0.1
ORM2,4.81 (active)
ORM2,3.67 (active)
ORM2,1.08
ORM2,2.02
COASY,-1.09
COASY,0.23
COASY,-0.44
COASY,0.1
CD163L1,2.58
CD163L1,2.41
CD163L1,2.14
CD163L1,1.98
FAM110D,1.24
FAM110D,0.17
FAM110D,0.38
FAM110D,0.69
SART1,-0.96
SART1,-0.5
SART1,-0.45
SART1,-0.24
TFPI2,0.01
TFPI2,0.27
TFPI2,0.84
LINS1,-0.2
LINS1,0.15
LINS1,0.51
LINS1,-0.57
PCDH19,0.45
PCDH19,1.67
PCDH19,0.02
PCDH19,-1.1
VMAC,2.14
VMAC,2.91 (active)
VMAC,1.97
VMAC,2.77
SLC16A11,0.65
SLC16A11,2.34
SLC16A11,1.9
SLC16A11,2.32
SLC30A3,0.03
SLC30A3,0.65
SLC30A3,0.08
SLC30A3,1.75
U2SURP,-1.25
U2SURP,-0.44
U2SURP,-0.64
U2SURP,-0.57
ZNF26,0.1
ZNF26,1.82
ZNF26,-0.99
ZNF26,-0.38
FBXO39,-1.95 (active)
FBXO39,0.67
FBXO39,2.04
FBXO39,1.82
FOS,-0.85
FOS,0.55
FOS,0.62
FOS,0.7
SLC25A22,1.59
SLC25A22,2.71
SLC25A22,1.43
SLC25A22,1.27
FAM24B,-0.13
FAM24B,-0.18
FAM24B,0.36
FAM24B,1.05
SERP2,0.22
SERP2,-0.04
SERP2,0.13
SERP2,1.38
OSGIN2,-0.01
OSGIN2,0.46
OSGIN2,1.96
OSGIN2,1.64
FBXL20,-0.98
FBXL20,0.53
FBXL20,-0.91
FBXL20,-0.01
LIPH,0.1
LIPH,0.82
LIPH,-0.25
LIPH,1.71

22 entries from above, reformatted:
{"gene symbol": "PPM1L", "TNF reporter robust z-score": 0.65}
{"gene symbol": "PPM1L", "TNF reporter robust z-score": 0.2}
{"gene symbol": "PPM1L", "TNF reporter robust z-score": -0.5}
{"gene symbol": "MEIS1", "TNF reporter robust z-score": -0.99}
{"gene symbol": "MEIS1", "TNF reporter robust z-score": -0.16}
{"gene symbol": "MEIS1", "TNF reporter robust z-score": -1.01}
{"gene symbol": "MEIS1", "TNF reporter robust z-score": -0.13}
{"gene symbol": "MAGEB3", "TNF reporter robust z-score": 0.94}
{"gene symbol": "MAGEB3", "TNF reporter robust z-score": 1.49}
{"gene symbol": "MAGEB3", "TNF reporter robust z-score": 0.03}
{"gene symbol": "MAGEB3", "TNF reporter robust z-score": 1}
{"gene symbol": "RTL8C", "TNF reporter robust z-score": -0.85}
{"gene symbol": "RTL8C", "TNF reporter robust z-score": 0.62}
{"gene symbol": "RTL8C", "TNF reporter robust z-score": -0.6}
{"gene symbol": "DPM3", "TNF reporter robust z-score": -0.45}
{"gene symbol": "DPM3", "TNF reporter robust z-score": -0.27}
{"gene symbol": "DPM3", "TNF reporter robust z-score": -0.57}
{"gene symbol": "DPM3", "TNF reporter robust z-score": -0.05}
{"gene symbol": "PCDHGB6", "TNF reporter robust z-score": -0.11}
{"gene symbol": "PCDHGB6", "TNF reporter robust z-score": 0.02}
{"gene symbol": "PCDHGB6", "TNF reporter robust z-score": 0.58}
{"gene symbol": "PCDHGB6", "TNF reporter robust z-score": 0.68}
